# Experimental data published in PubChem BioAssay AID1259354 (Paczesny and Yang Labs, IUPUI and University of Michigan, 2018).
# Protein sequences, listed by entry. Tags and fused reporters are not part of them. Lines headed by an entry give the natural chain unless they say otherwise; changes in a name come on top.
# UniProt Q01638: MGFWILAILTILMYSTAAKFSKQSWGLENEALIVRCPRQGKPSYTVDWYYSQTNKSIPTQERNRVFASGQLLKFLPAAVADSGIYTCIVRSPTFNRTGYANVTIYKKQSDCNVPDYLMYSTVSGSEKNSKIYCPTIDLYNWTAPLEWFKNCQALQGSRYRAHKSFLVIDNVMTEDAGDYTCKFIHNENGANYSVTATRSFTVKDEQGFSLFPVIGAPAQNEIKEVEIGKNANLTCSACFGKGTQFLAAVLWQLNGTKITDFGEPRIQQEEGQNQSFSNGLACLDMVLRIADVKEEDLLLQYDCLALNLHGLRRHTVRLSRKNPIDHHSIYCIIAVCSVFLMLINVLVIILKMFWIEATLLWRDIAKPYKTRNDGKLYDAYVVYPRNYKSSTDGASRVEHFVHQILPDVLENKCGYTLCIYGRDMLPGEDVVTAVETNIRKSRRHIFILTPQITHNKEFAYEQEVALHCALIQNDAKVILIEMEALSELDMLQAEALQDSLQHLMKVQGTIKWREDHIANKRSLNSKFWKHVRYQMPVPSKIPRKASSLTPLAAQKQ
# The campaign covered roughly 78,000 compounds. About 1,800 (2.3%) were called active. Inconclusive results, whose numbers are uncertain, are shown with a selection of clear calls. Rule as the data show it: active = inhibition above about 30%; inconclusive = mostly about 10% to 28%; inactive = weaker than that.
# Molecular target: Interleukin-1 receptor-like 1 (Homo sapiens) (UniProt Q01638)
# Assay: blocks human ST2 binding to IL-33, primary screen, biochemical, AlphaLISA (AID 1259354)
# Settings: AlphaLISA ST2-Fc/biotin-IL-33 interaction, 1 h; at 17 µM, stronger effect = higher value
row,SMILES,inhibition
1,CCOc1ccc(-c2cc(NC3CCCC3)nc3[nH]ccc23)nn1,inconclusive: 29%
2,COc1ccc(/C=C2\N=C(c3ccc(OC)c([N+](=O)[O-])c3)OC2=O)c(OC)c1,inconclusive: 11%
3,CC(C)C(NS(=O)(=O)c1cccc2nsnc12)C(=O)N1CCCCCC1 (centres undefined),inactive
4,O=C1CC(c2cccs2)CC2=C1C(c1ccc(O)cc1)Nc1ccccc1N2 (centres undefined),inconclusive: 12%
5,Cc1cccc2cc(C3CC(c4cccs4)=NN3C(=O)CCC(=O)O)c(Cl)nc12 (centres undefined),inconclusive: 24%
6,Cc1ccc(S(=O)(=O)C2(C(=O)NCc3ccc(F)cc3)CC2)cc1,inactive
7,COc1cc2c(cc1OC)C(C(=O)N1CCCC1)C(c1ccccc1F)N(C)C2=O (centres undefined),inconclusive: 13%
8,Cc1ccc(C2(O)CCN(Cc3[nH]c4ccc(F)cc4c3C)CC2)nc1,inconclusive: 15%
9,CCNC(=O)CC1Nc2cc(C)c(C)cc2NC1=O (centres undefined),inconclusive: 10%
10,Cc1cc(NC(=O)c2ccc(F)c(F)c2)nc2c1c(=O)oc1ccccc12,inconclusive: 11%
11,COc1ccc(CN(c2ccccc2)S(=O)(=O)N(C)C)cc1[N+](=O)[O-],inconclusive: 16%
12,COc1ccc2cc3cc(C(=O)Nc4ccc(C(C)C)cc4)oc3nc2c1,inconclusive: 19%
13,Cc1nc(SCC(=O)N(C)Cc2ccc3nsnc3c2)n[nH]1,inconclusive: 10%
14,O=C1CCCC2=C1C(c1cccs1)n1nc(SCc3ccccc3F)nc1N2 (centres undefined),inconclusive: 12%
15,Cc1ccc(CNC(=O)c2ccccc2F)cc1,inconclusive: 15%
16,Cc1cccc(NC(=O)C(Cc2ccccc2)NS(=O)(=O)c2cccs2)n1 (centres undefined),inconclusive: 12%
17,O=C(NCCSc1c(-c2ccc(Br)cc2)[nH]c2ccccc12)c1ccncc1,inconclusive: 17%
18,O=C1CSC(c2ccccc2)N1c1ccc(Br)cc1 (centres undefined),inactive
19,COc1ccccc1-c1cc(C(=O)N2CCC(O)(c3ccccc3)C2)[nH]n1 (centres undefined),inconclusive: 18%
20,COc1ccc(NC(=O)c2nn(-c3ccc(Cl)cc3)c(=O)c3ccccc23)cc1Cl,inactive

row,SMILES,inhibition
1,CC1CC(C)CN(C(=O)C2c3ccccc3C(=O)N3CCc4ccccc4C23)C1 (centres undefined),inactive
2,COC(=O)C(NC(=O)CCc1c(C)nc2cc(-c3ccccc3)nn2c1C)C(C)C (centres undefined),inconclusive: 10%
3,COc1ccc(C2(CNC(=O)/C=C/c3ccco3)CCCC2)cc1OC,inconclusive: 14%
4,CC(C)Cc1cc(C(=O)Nc2ccc3c(c2)OCO3)no1,inconclusive: 10%
5,COc1ccc(CN2CCc3ccccc3C2)cc1OC,inactive
6,COc1cc(CN2CCCN(C)CC2)cc(Br)c1O,inactive
7,CCc1cccc(OCCN2CCOCC2)c1,inconclusive: 19%
8,CC1=NN(c2ccccc2)C(=O)C1C1c2ccccc2Oc2ccccc21 (centres undefined),inactive
9,Cc1nn(Cc2ccccc2)c(C)c1[C@@H]1C=C[C@@H](NC(=O)CC2(CC(=O)O)CCCC2)C1,inconclusive: 22%
10,Clc1ccccc1Nc1cccc2nccnc12,active: 39%
11,COc1ccc2c(=O)c(-c3ccccc3C)c(C(F)(F)F)oc2c1C,inconclusive: 13%
12,Cc1ccn2c(Nc3ccc(F)cc3)c(-c3ccco3)nc2c1,inconclusive: 18%
13,CC(C)Cc1ccc(S(=O)(=O)N2CCN(c3ccccc3F)CC2)cc1,inactive
14,CCC(=O)Nc1ccc2nc(SCC(=O)NCC3CCCO3)sc2c1 (centres undefined),inconclusive: 18%
15,Cc1cccc(CNC(=O)CN2C(=O)C3CCCN3C(=O)c3ccccc32)c1 (centres undefined),inconclusive: 17%
16,COc1ccc(NC(=O)c2ccc(OC)c([N+](=O)[O-])c2)cc1Cl,inconclusive: 16%
17,CCN(CC)S(=O)(=O)c1ccc(C(=O)N=c2sc3cccc(C)c3n2C)cc1,inactive
18,CCOc1ccc(N2CN=c3s/c(=C\c4ccccc4O)c(=O)n3C2)cc1,inconclusive: 17%
19,CC(=O)c1cc(C(=O)N(C)Cc2c(C)noc2C)cs1,inconclusive: 13%
20,CC(=O)Nc1ccc(S(=O)(=O)Nc2ccc3n(c2=O)C[C@H]2C[C@@H]3CN(C(=O)c3ccccn3)C2)cc1,inconclusive: 12%

# Looked up by compound from the list above, 5 records:
row,SMILES,inhibition
16,Cc1cccc(NC(=O)C(Cc2ccccc2)NS(=O)(=O)c2cccs2)n1 (centres undefined),inconclusive: 12%
17,CCN(CC)S(=O)(=O)c1ccc(C(=O)N=c2sc3cccc(C)c3n2C)cc1,inactive
7,COc1cc2c(cc1OC)C(C(=O)N1CCCC1)C(c1ccccc1F)N(C)C2=O (centres undefined),inconclusive: 13%
20,CC(=O)Nc1ccc(S(=O)(=O)Nc2ccc3n(c2=O)C[C@H]2C[C@@H]3CN(C(=O)c3ccccn3)C2)cc1,inconclusive: 12%
6,COc1cc(CN2CCCN(C)CC2)cc(Br)c1O,inactive

# Remaining list, next part:

row,SMILES,inhibition
1,CCOc1ccc(C(=O)Nc2ccc(Nc3nc(C)cc(Nc4ccc(OC)cc4)n3)cc2)cc1,active: 30%
2,CC(C)NC(=O)C(Cc1ccccc1)NS(=O)(=O)c1cccs1 (centres undefined),inactive
3,CN(C)C(=O)c1ccc2c(c1)N(C)C(CC(=O)NCc1ccno1)CO2 (centres undefined),inactive
4,CC(C)CNC(=O)/C=C/C=C/Cc1cccs1,inactive
5,CN(CCC1CCOCC1)C(=O)c1ccc(OC2CCN(C(=O)C3CC3)CC2)cc1,inconclusive: 11%
6,CC(=O)Nc1ccc(NC(=O)c2ccnn2C)cc1,inconclusive: 17%
7,CCOc1ccc2c(=O)c(-c3ccccc3OC)c(C(F)(F)F)oc2c1,inconclusive: 16%
8,Cc1cccnc1CC(C)NC(=O)c1c(O)cccc1O (centres undefined),inconclusive: 11%
9,CC1CCCN(CCCNC(=O)CN2C(=O)/C(=C/c3ccccc3F)Sc3ccccc32)C1 (centres undefined),inconclusive: 10%
10,CCSc1nnc2c(n1)OC(c1ccccn1)N(C(=O)CC)c1ccccc1-2 (centres undefined),inconclusive: 14%
11,CCC(C)NC(=O)C1(C)CCC(=O)N1Cc1cccs1 (centres undefined),inconclusive: 11%
12,COc1ccc(N2CCN(Cc3cccc(OC)c3OC)CC2)cc1,inconclusive: 18%
13,COc1cccc(NC2=C(N3CCOCC3)C(=O)c3ccccc3C2=O)c1,active: 71%
14,CCOC(=O)CN(Cc1ccc(F)cc1)S(=O)(=O)c1ccc(C(C)C)cc1,inactive
15,CSC(=O)OCC1=C[C@@H]2OC(=O)C3=CO[C@@H](O[C@@H]4O[C@H](CO)[C@@H](O)[C@H](O)[C@H]4O)[C@H]1[C@@H]32,inconclusive: 10%
16,O=C1C2C(C(=O)N1c1ccncc1)[C@@H]1C=C[C@H]2[C@H]2C[C@H]21 (some centres undefined),inactive
17,CC(C)N(Cc1nccn1C)C(=O)CC1CCc2ccccc21 (centres undefined),inconclusive: 17%
18,Cc1ccc(S(=O)(=O)C2(C(=O)N3CCN(c4cccc(C)c4C)CC3)CC2)cc1,inconclusive: 25%
19,O=C(Nc1ccc2n(c1=O)C[C@H]1C[C@@H]2CN(C(=O)COc2ccccc2)C1)c1ccccc1,inconclusive: 18%
